Measurements as given in PubChem BioAssay AID588590 (National Center for Advancing Translational Sciences (NCATS), 2011).
“And” between values parts separate entries of the source, which are not always exact repeats. Equal entries are not always repeated. About 4,000 (1%) of roughly 390,000 compounds were called active. This list was built around the results that the source calls inconclusive (neither active nor inactive); the mix of calls is not that of the screen. Calls follow the shape of the dose curve; as a rule, active = well fitted inhibition curve with a large enough effect; inconclusive = small, poorly fitted or top-dose-only effect, or another doubt; inactive = no such curve, though single readings can be large or run the other way. A potency beside an inconclusive call is a rough fit, not a confirmed value.

By UniProt entry, the sequences of proteins in these tests, tags left out. Where a name states a change or a piece, a line headed by the entry shows the natural chain unless it says otherwise.
UniProt Q9UNA4: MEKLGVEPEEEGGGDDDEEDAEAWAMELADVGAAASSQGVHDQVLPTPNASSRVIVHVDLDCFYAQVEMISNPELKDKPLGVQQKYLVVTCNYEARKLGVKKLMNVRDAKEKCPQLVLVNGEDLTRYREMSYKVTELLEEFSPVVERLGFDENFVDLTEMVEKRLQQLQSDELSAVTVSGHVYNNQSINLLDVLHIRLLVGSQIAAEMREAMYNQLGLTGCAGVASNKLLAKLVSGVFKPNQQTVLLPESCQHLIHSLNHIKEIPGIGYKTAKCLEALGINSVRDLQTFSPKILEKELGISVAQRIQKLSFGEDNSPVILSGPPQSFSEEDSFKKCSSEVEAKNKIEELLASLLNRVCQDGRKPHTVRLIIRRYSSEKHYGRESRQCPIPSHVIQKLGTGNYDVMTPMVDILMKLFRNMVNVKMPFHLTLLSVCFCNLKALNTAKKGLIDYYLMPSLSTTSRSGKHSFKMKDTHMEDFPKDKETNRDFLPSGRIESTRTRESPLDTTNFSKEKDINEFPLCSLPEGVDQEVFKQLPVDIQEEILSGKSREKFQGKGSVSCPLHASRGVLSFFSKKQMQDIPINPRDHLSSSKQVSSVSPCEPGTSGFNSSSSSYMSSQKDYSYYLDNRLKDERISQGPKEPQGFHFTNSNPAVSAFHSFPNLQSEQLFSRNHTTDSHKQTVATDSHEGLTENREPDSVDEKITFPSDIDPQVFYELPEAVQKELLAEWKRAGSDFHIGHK

molecular target: DNA polymerase iota (Homo sapiens) (UniProt Q9UNA4); experiment: qHTS for Inhibitors of Polymerase Iota; conditions: Pol iota fluorescent replication assay, 10 min; series mostly up to 115 µM
Method in brief: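 Pol iota at 10 nM preincubated 15 min with compounds at room temperature; reaction started with fluorescent substrate, 50 nM final. Fluorescence read kinetically at 0 and 10 min; buffer-only wells as negative control.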
Potency is read from the fitted curve at half-maximal effect.

SMILES	Potency
O=C(CSc1nc2ccccc2o1)N/N=C/c1ccccc1C(=O)O	inconclusive: 3.98 µM [inhibitor, full curve, poor fit]
Cc1cc(NC(=O)CSc2nnc(CNC(=O)c3ccccc3)o2)no1	inconclusive: 100 µM [inhibitor, partial curve]
Cc1oc(C(=O)O)cc1CSCc1ccoc1C(=O)O	inconclusive: 20 µM [inhibitor, partial curve]
COc1cc(OC)c(S(=O)(=O)Nc2ccccc2C(=O)O)cc1S(=O)(=O)Nc1ccccc1C(=O)O	inconclusive: 25.1 µM [inhibitor, partial curve]
CC(=O)Nc1ccc(NC(=O)c2ccccc2Sc2ccc([N+](=O)[O-])cc2Cl)cc1	inconclusive: 89.1 µM [inhibitor, partial curve, poor fit]
CC(=O)N1CCc2cc(S(=O)(=O)NC(CC(C)C)C(=O)NCCc3ccc(C)cc3)ccc21 (stereo not drawn)	inconclusive: 89.1 µM [inhibitor, single point]
Cc1cc(N/N=C/c2ccccc2O)c2ccccc2n1	inactive
CC(=O)NS(=O)(=O)c1ccc(NC(=O)/C=C/c2ccc(C)o2)cc1	inconclusive: 0.708 µM [inhibitor, full curve, poor fit]
O=C(Nc1ccccc1)c1ccccc1O	inactive
N=C1/C(=C\c2ccc(OC(=O)c3ccc(F)cc3)cc2)C(=O)N=C2SC(N3CCCC3)=NN12	inactive
COc1ccc(OC)c(CNC(=O)CCc2nc(-c3cccs3)no2)c1	inconclusive: 39.8 µM [inhibitor, single point]
Cc1ccc(NC(=O)CSc2nc(-c3ccc(C(C)(C)C)cc3)nc3cc(=O)[nH]n23)cc1C	inactive
COc1cccc2c(N/N=C/c3ccc(O)c(O)c3)cc(C)nc12	inconclusive: 50.1 µM [inhibitor, partial curve, poor fit]
CC12CCC(C(=O)N3CCC(Cc4ccccc4)CC3)(C(=O)C1=O)C2(C)C (stereo not drawn)	inconclusive: 89.1 µM [inhibitor, partial curve, poor fit]
CN(C)Cc1nc2c(c(=O)[nH]1)C1(CCCCC1)Cc1ccccc1-2	inconclusive: 178 µM [inhibitor, partial curve, poor fit]
COC(=O)C1=C(C(=O)OC)[C@@H]2N(C)c3ccc(OC)cc3[C@@]23C[C@@H](C(=O)OC)N(C(=O)NC2CCCCC2)C3=N1	inconclusive: 39.8 µM [inhibitor, partial curve, poor fit]
Cc1cccc(C)c1NC(=O)/C(C#N)=C/c1ccc(-c2ccc(C(=O)O)cc2)o1	inactive
CN(C(=O)C1CCOC1)c1nnc(-c2cccnc2)s1 (stereo not drawn)	inconclusive: 39.8 µM [inhibitor, single point]
CCN(c1ccccc1)S(=O)(=O)c1nnc(NC(=O)C(C)(C)C)s1	inconclusive: 79.4 µM [inhibitor, single point] and inconclusive: 31.6 µM [inhibitor, full curve, poor fit]
CCCCNC(=O)C1CCN(Cc2ccccn2)CC1	inconclusive: 22.4 µM [inhibitor, single point]
Nc1nc(SCC(=O)Nc2ncc(Cl)cc2Cl)n[nH]1	active: 79.4 µM

SMILES	Potency
O=C(CS(=O)(=O)c1cccc2nsnc12)Nc1ccc(F)cc1	inactive
Cc1ccc2c(=O)oc(N(C)C)nc2c1	inconclusive: 39.8 µM [inhibitor, single point]
Cc1cccc(-c2nnn3c2nc(NCCc2ccc(S(N)(=O)=O)cc2)c2ccccc23)c1	inconclusive: 2.82 µM [inhibitor, full curve, poor fit]
COc1ccc(N(CCCN2C(=O)c3cccc4cccc(c34)C2=O)C(=O)c2ccncc2)cc1	inactive
COc1ccc(S(=O)(=O)N2CCN(c3ccc(Cl)c(Cl)c3)CC2)c2ccccc12	inactive
Cc1cc(Cl)ccc1OCC(=O)N1CCCN(C(=O)COc2ccc(Cl)cc2C)CC1	inconclusive: 79.4 µM [inhibitor, partial curve, poor fit]
COc1ccc(C(=O)NC(=S)NC(C)c2ccccc2)cc1 (stereo not drawn)	inconclusive: 22.4 µM [inhibitor, partial curve, poor fit]
O=C(NCc1ccccn1)c1coc(=O)c(Br)c1	inactive
Cc1ccc(CNC(=O)c2cc(S(=O)(=O)N3CCCC3)cn2C)cc1	inactive
CC1Cc2ccccc2N1C(=O)CN1C(=O)NC2(CCCCC2)C1=O (stereo not drawn)	inconclusive: 89.1 µM [inhibitor, single point]
CCOc1cc(/C=C2/NC(=O)NC2=O)cc(Br)c1OCc1ccc(C(=O)O)cc1	inconclusive: 17.8 µM [inhibitor, partial curve, poor fit]
Cc1ccc(CCNC(=O)Cn2ncc3c([nH]c4ccc(C)cc43)c2=O)cc1	inconclusive: 3.98 µM [inhibitor, partial curve, poor fit]
CCOc1ccc(S(=O)(=O)c2cn(Cc3ccccc3C)c3ccc(OC)cc3c2=O)cc1	inactive
O=C1CN(C(=O)c2cnccn2)c2ccccc2N1	inactive
C[C@]12c3[nH]c4ccccc4c3CCN1C(=O)C(CC(=O)NCC13CC4CC(CC(C4)C1)C3)C[C@@H]2C(=O)N1CCCCC1 (stereo partly drawn)	inconclusive: 100 µM [inhibitor, partial curve, poor fit]
CCOC(=O)N1CCN(Cc2nc3cc(NC(=O)C(C)C)ccc3n2C(C)C)CC1	inactive
COc1cc2c(NC3CCN(C)CC3)nc(N3CCCN(C)CC3)nc2cc1OCC1CCCCN1 (stereo not drawn)	inconclusive: 28.2 µM [inhibitor, full curve, poor fit]
Cc1noc(C)c1S(=O)(=O)Nc1ccc(C(=O)O)cc1	inactive
Cc1cc(Br)ccc1NCc1ccccn1	inconclusive: 79.4 µM [inhibitor, single point]
Cc1noc(C)c1NC(=O)N(C)C[C@@H]1Oc2ccc(NC(=O)C3CCCCC3)cc2C(=O)N([C@@H](C)CO)C[C@H]1C	inconclusive: 79.4 µM [inhibitor, single point]
O=C(CSc1nc(-c2cccs2)nc2cc(=O)[nH]n12)Nc1cccc(C(F)(F)F)c1	inconclusive: 89.1 µM [inhibitor, single point]

Taken from the listing, two compounds:
SMILES	Potency
Cc1cc(Br)ccc1NCc1ccccn1	inconclusive: 79.4 µM [inhibitor, single point]
Cc1noc(C)c1NC(=O)N(C)C[C@@H]1Oc2ccc(NC(=O)C3CCCCC3)cc2C(=O)N([C@@H](C)CO)C[C@H]1C	inconclusive: 79.4 µM [inhibitor, single point]

Next results follow.

SMILES	Potency
Cc1cc(Br)cc2c1N(C)C(=O)C2(c1ccc(O)cc1)c1ccc(O)cc1	inconclusive: 63.1 µM [inhibitor, partial curve, poor fit]
Cc1cc(OCCCn2c(CCNC(=O)C3CCCCC3)nc3ccccc32)ccc1Cl	inconclusive: 39.8 µM [inhibitor, partial curve, poor fit]
CCn1c(SCc2nc3scc(-c4ccccc4)c3c(=O)[nH]2)nnc1-c1cccs1	inconclusive: 112 µM [inhibitor, partial curve, poor fit]
COc1ccc(-c2c3c(=O)n(C)c(=O)n(C)c3c3n2-c2ccccc2NC3c2ccc(O)cc2O)cc1 (stereo not drawn)	inactive
Cc1cc(C)nc(/N=C2/NC(=O)CS2)n1	inconclusive: 15.8 µM [inhibitor, partial curve, poor fit]
COc1ccc(CCn2c(O)cc3nn(-c4nc5ccccc5s4)c(=O)c-3c2C)cc1	inconclusive: 10 µM [inhibitor, full curve, poor fit]
COc1cc(C=O)ccc1OCc1cn(CC(=O)c2ccc(O)cc2)nn1	inactive
COC(=O)c1ccc(CSc2nc(-c3ccccc3)cs2)o1	inconclusive: 50.1 µM [inhibitor, partial curve, poor fit]
Cc1nn(C)c2c1c(C(F)(F)F)cc(=O)n2C(C)C(=O)NCCc1ccccc1 (stereo not drawn)	inactive
Brc1ccc(C2=CC(c3cccs3)n3ncnc3N2)cc1 (stereo not drawn)	inconclusive: 31.6 µM [inhibitor, partial curve]
O=C(/C=C/c1ccc(N2CCC(c3ccccc3)=N2)cc1)c1ccccc1	inconclusive: 15.8 µM [inhibitor, full curve, poor fit]
CNC(=S)NNC(=O)c1ccc(C(C)(C)C)cc1	inconclusive: 31.6 µM [inhibitor, full curve, poor fit]
CCC(CO)Oc1cc(NCc2cccc(OC)c2)c2ncn(C(C)C)c2c1 (stereo not drawn)	inconclusive: 39.8 µM [inhibitor, single point]
C#CCOc1ccc(/C=C2/C(=O)ON=C2C)cc1OCC	inconclusive: 35.5 µM [inhibitor, single point]
CCc1ccc(NC(=O)C(NS(=O)(=O)c2cccc3nsnc23)c2ccccc2)cc1 (stereo not drawn)	inconclusive: 79.4 µM [inhibitor, single point]
CCOC(=O)c1cccc(NC(=O)CSc2nnc(-c3ccoc3C)n2CC)c1	inconclusive: 89.1 µM [inhibitor, partial curve, poor fit]
NN1C(=O)c2cccc3c(C(=O)O)ccc(c23)C1=O	inactive
COC(=O)c1ccccc1NC(=S)NC(=O)c1ccc2c(c1)OCO2	inconclusive: 39.8 µM [inhibitor, single point]
COc1cccc(NC(=O)c2sc3nc(C)c(C(=O)Nc4ccc(Cl)cc4)c(-c4ccc(Br)cc4)c3c2N)c1	inconclusive: 79.4 µM [inhibitor, partial curve]
CCOC(=O)c1[nH]c(C)c(/C(O)=C2\C(=O)C(=O)N(CCCn3ccnc3)C2c2ccncc2)c1C (stereo not drawn)	inconclusive: 14.1 µM [inhibitor, partial curve, poor fit]
Cc1ccc(C)c(NC(=O)CSc2sc3c(O)cc(=O)[nH]c3c2C#N)c1	active: 28.2 µM
